According to the supplement of paper PMC7661543:
± gives the standard deviation of the averaged measurements. The effect of the compound repeats well; differences between the knockouts mostly do not.

System: BT-20
Test: relative cell number vs DMSO control (72 h) (% of DMSO); higher = less growth inhibition (more cells)
Experimental: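 QMAP-Seq: a pool of 5 breast cancer cell lines (ZR-75-1, SKBR3, HCC-38, MDA-MB-231, BT-20), each carrying 12 doxycycline-inducible Cas9 sgRNA perturbations (11 knockouts plus non-targeting sgNT), was treated with compounds for 72 h at four 10-fold doses (10 nM-10 uM or 1 nM-1 uM range). Barcodes were amplified and sequenced, and cell number was interpolated from 293T spike-in standard curves. The result is expressed as % of the median of DMSO wells. Two biological replicates.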

[1] = sgRNA knockout: sgATF3, 1000 nM
[2] = sgRNA knockout: sgATF4, 1000 nM
[3] = sgRNA knockout: sgATF6, 1000 nM
[4] = sgRNA knockout: sgATG7, 1000 nM
[5] = sgRNA knockout: sgERN1, 1000 nM
[6] = sgRNA knockout: sgHSF1, 1000 nM
[7] = sgRNA knockout: sgHSF2, 1000 nM
[8] = sgRNA knockout: sgKEAP1, 100 nM
[9] = sgRNA knockout: sgKEAP1, 1000 nM
[10] = sgRNA knockout: sgNFE2L2, 10 nM
[11] = sgRNA knockout: sgNFE2L2, 100 nM
[12] = sgRNA knockout: sgNFE2L2, 1000 nM
[13] = sgRNA knockout: sgSLC35F2, 10 nM
[14] = sgRNA knockout: sgSLC35F2, 100 nM
[15] = sgRNA knockout: sgSLC35F2, 1000 nM
[16] = sgRNA knockout: sgXBP1, 1000 nM

COC(=O)/C=C/C(=O)OC [DimethylFumarate]
relative cell number (sgRNA knockout: sgATF3, 10 nM): 91.8 ± 15 | relative cell number (sgRNA knockout: sgATF3, 100 nM): 84.2 ± 5.9 | relative cell number [1]: 90.3 ± 22 | relative cell number (sgRNA knockout: sgATF3, 10000 nM): 92.8 ± 13 | relative cell number (sgRNA knockout: sgATF4, 10 nM): 111 ± 12 | relative cell number (sgRNA knockout: sgATF4, 100 nM): 93.8 ± 16 | relative cell number [2]: 102 ± 12 | relative cell number (sgRNA knockout: sgATF4, 10000 nM): 95.56 ± 0.92 | relative cell number (sgRNA knockout: sgATF6, 10 nM): 108 ± 24 | relative cell number (sgRNA knockout: sgATF6, 100 nM): 88.3 ± 24 | relative cell number [3]: 105 ± 5.3 | relative cell number (sgRNA knockout: sgATF6, 10000 nM): 92.4 ± 10 | relative cell number (sgRNA knockout: sgATG7, 10 nM): 96.1 ± 22 | relative cell number (sgRNA knockout: sgATG7, 100 nM): 95.9 ± 19 | relative cell number [4]: 99.1 ± 22 | relative cell number (sgRNA knockout: sgATG7, 10000 nM): 100 ± 25 | relative cell number (sgRNA knockout: sgERN1, 10 nM): 101 ± 16 | relative cell number (sgRNA knockout: sgERN1, 100 nM): 88.8 ± 4.7 | relative cell number [5]: 100 ± 30 | relative cell number (sgRNA knockout: sgERN1, 10000 nM): 107 ± 22 | relative cell number (sgRNA knockout: sgHSF1, 10 nM): 97.2 ± 8.9 | relative cell number (sgRNA knockout: sgHSF1, 100 nM): 98.2 ± 21 | relative cell number [6]: 92.1 ± 16 | relative cell number (sgRNA knockout: sgHSF1, 10000 nM): 93.5 ± 15 | relative cell number (sgRNA knockout: sgHSF2, 10 nM): 99.1 ± 12 | relative cell number (sgRNA knockout: sgHSF2, 100 nM): 92.3 ± 3.5 | relative cell number [7]: 95.8 ± 32 | relative cell number (sgRNA knockout: sgHSF2, 10000 nM): 102 ± 27 | relative cell number (sgRNA knockout: sgKEAP1, 10 nM): 102 ± 4.5 | relative cell number [8]: 92.4 ± 7 | relative cell number [9]: 105 ± 1.2 | relative cell number (sgRNA knockout: sgKEAP1, 10000 nM): 92 ± 1.8 | relative cell number [10]: 112 ± 2 | relative cell number [11]: 92.6 ± 10 | relative cell number [12]: 109 ± 6.8 | relative cell number (sgRNA knockout: sgNFE2L2, 10000 nM): 103 ± 2.5 | relative cell number [13]: 99.8 ± 21 | relative cell number [14]: 107 ± 15 | relative cell number [15]: 101 ± 16 | relative cell number (sgRNA knockout: sgSLC35F2, 10000 nM): 90.1 ± 4.5 | relative cell number (sgRNA knockout: sgXBP1, 10 nM): 103 ± 5.8 | relative cell number (sgRNA knockout: sgXBP1, 100 nM): 86.9 ± 17 | relative cell number [16]: 100 ± 26 | relative cell number (sgRNA knockout: sgXBP1, 10000 nM): 102 ± 17

CN1CCN(c2ccc(C(=O)Nc3n[nH]c4ccc(Cc5cc(F)cc(F)c5)cc34)c(NC3CCOCC3)c2)CC1 [Entrectinib]
relative cell number (sgRNA knockout: sgATF3, 1 nM): 90.4 ± 11 | relative cell number (sgRNA knockout: sgATF3, 10 nM): 99.9 ± 14 | relative cell number (sgRNA knockout: sgATF3, 100 nM): 96.9 ± 4.8 | relative cell number [1]: 88.8 ± 7.4 | relative cell number (sgRNA knockout: sgATF4, 1 nM): 89.1 ± 12 | relative cell number (sgRNA knockout: sgATF4, 10 nM): 97.1 ± 13 | relative cell number (sgRNA knockout: sgATF4, 100 nM): 91.7 ± 27 | relative cell number [2]: 95.2 ± 2 | relative cell number (sgRNA knockout: sgATF6, 1 nM): 99.3 ± 5 | relative cell number (sgRNA knockout: sgATF6, 10 nM): 89.5 ± 2.8 | relative cell number (sgRNA knockout: sgATF6, 100 nM): 87.6 ± 0.6 | relative cell number [3]: 90.2 ± 33 | relative cell number (sgRNA knockout: sgATG7, 1 nM): 93 ± 13 | relative cell number (sgRNA knockout: sgATG7, 10 nM): 114 ± 22 | relative cell number (sgRNA knockout: sgATG7, 100 nM): 99.6 ± 21 | relative cell number [4]: 108 ± 4.4 | relative cell number (sgRNA knockout: sgERN1, 1 nM): 88.7 ± 1.7 | relative cell number (sgRNA knockout: sgERN1, 10 nM): 111 ± 9.8 | relative cell number (sgRNA knockout: sgERN1, 100 nM): 84.2 ± 14 | relative cell number [5]: 95.16 ± 0.42 | relative cell number (sgRNA knockout: sgHSF1, 1 nM): 92.1 ± 2.9 | relative cell number (sgRNA knockout: sgHSF1, 10 nM): 85.2 ± 7.4 | relative cell number (sgRNA knockout: sgHSF1, 100 nM): 93.6 ± 18 | relative cell number [6]: 90.3 ± 16 | relative cell number (sgRNA knockout: sgHSF2, 1 nM): 86.6 ± 7 | relative cell number (sgRNA knockout: sgHSF2, 10 nM): 103 ± 4.1 | relative cell number (sgRNA knockout: sgHSF2, 100 nM): 92.7 ± 18 | relative cell number [7]: 87.66 ± 0.15 | relative cell number (sgRNA knockout: sgKEAP1, 1 nM): 85.1 ± 2.5 | relative cell number (sgRNA knockout: sgKEAP1, 10 nM): 103 ± 3.8 | relative cell number [8]: 86 ± 11 | relative cell number [9]: 85.3 ± 13 | relative cell number (sgRNA knockout: sgNFE2L2, 1 nM): 90.8 ± 25 | relative cell number [10]: 98.5 ± 2.7 | relative cell number [11]: 98.5 ± 11 | relative cell number [12]: 97.7 ± 4.4 | relative cell number (sgRNA knockout: sgSLC35F2, 1 nM): 96.6 ± 3.4 | relative cell number [13]: 99.4 ± 6.6 | relative cell number [14]: 102 ± 10 | relative cell number [15]: 95.6 ± 2.6 | relative cell number (sgRNA knockout: sgXBP1, 1 nM): 96.5 ± 2 | relative cell number (sgRNA knockout: sgXBP1, 10 nM): 99 ± 6.2 | relative cell number (sgRNA knockout: sgXBP1, 100 nM): 88.5 ± 3.3 | relative cell number [16]: 96.8 ± 4.2
